Test results taken from publication doi:10.1101/2024.06.11.598486.
These are yes or no findings as the source states them, for the method shown. In cells and extracts the contact can be indirect. Some binding calls cover weakened binding; strength is not graded here.

Protein sequences, listed by entry. Tags and fused reporters are not part of them.
UniProt Q00613: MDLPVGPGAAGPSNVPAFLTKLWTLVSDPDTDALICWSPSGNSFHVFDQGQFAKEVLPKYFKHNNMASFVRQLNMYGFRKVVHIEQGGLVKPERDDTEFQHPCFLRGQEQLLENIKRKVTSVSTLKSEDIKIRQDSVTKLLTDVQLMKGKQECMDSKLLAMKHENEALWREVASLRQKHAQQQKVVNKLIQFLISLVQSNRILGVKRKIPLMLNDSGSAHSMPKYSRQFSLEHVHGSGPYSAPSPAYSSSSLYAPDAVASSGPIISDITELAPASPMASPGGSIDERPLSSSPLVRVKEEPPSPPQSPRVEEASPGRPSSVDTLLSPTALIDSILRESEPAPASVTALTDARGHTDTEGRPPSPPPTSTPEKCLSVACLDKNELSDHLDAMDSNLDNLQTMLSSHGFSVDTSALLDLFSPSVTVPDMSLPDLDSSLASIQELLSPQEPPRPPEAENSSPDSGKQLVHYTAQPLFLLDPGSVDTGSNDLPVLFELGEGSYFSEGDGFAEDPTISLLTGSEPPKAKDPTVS
UniProt P01106: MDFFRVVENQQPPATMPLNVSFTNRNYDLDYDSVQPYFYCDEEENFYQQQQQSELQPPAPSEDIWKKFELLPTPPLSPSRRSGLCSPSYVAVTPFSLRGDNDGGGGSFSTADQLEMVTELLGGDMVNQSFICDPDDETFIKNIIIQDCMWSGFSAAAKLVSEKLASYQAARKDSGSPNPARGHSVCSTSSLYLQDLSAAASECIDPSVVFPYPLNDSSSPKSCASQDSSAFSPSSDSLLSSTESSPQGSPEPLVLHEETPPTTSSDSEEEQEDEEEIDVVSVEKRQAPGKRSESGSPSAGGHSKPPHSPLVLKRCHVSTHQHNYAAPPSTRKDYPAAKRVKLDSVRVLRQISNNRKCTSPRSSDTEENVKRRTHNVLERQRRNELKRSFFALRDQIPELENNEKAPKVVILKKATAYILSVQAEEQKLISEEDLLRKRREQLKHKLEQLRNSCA

Target: Heat shock factor 1 (HSF1) (human (endogenous in OVCAR4 and OVCAR8)) (UniProt Q00613)
Assay: co-IP

MYC (from UniProt P01106 1-454)
binding: binds
